Data published in the supplement of paper PMC4604168 (melanoma cell lines).
The other results are listed elsewhere or left out. Single values are uncertain, as repeats are few or missing.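 Imaging used 1,536-well plates; nuclei positive for cleaved PARP by antibody were divided by total DNA-stained nuclei to yield the apoptosis fraction. Doses for screening kept most cells viable, and cell lines differ markedly in resting and induced cleaved-PARP levels.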

Legend:
Test in all cases: cleaved PARP positive nuclei fraction relative to DMSO control; melanoma cells; higher = more apoptosis
Conditions in all cases: library dose: low library concentration; 72 h
501Mel = system: 501Mel
A101D = system: A101D
A2058 = system: A2058
A375 = system: A375
C32 = system: C32
CBRC008 = system: CBRC008 (line from a melanoma biopsy)
CBRC013 = system: CBRC013 (line from a melanoma biopsy)
CBRC014 = system: CBRC014 (line from a melanoma biopsy)
CBRC016 = system: CBRC016 (line from a melanoma biopsy)
CBRC017 = system: CBRC017 (line from a melanoma biopsy)

| Structure (SMILES) | cleaved PARP positive nuclei fraction (501Mel) | cleaved PARP positive nuclei fraction (A101D) | cleaved PARP positive nuclei fraction (A2058) | cleaved PARP positive nuclei fraction (A375) | cleaved PARP positive nuclei fraction (C32) | cleaved PARP positive nuclei fraction (CBRC008) | cleaved PARP positive nuclei fraction (CBRC013) | cleaved PARP positive nuclei fraction (CBRC014) | cleaved PARP positive nuclei fraction (CBRC016) | cleaved PARP positive nuclei fraction (CBRC017) |
| --- | --- | --- | --- | --- | --- | --- | --- | --- | --- | --- |
| COc1cc([C@@H]2c3cc4c(cc3[C@@H](O[C@@H]3O[C@@H]5CO[C@@H](C)O[C@H]5[C@H](O)[C@H]3O)[C@H]3COC(=O)[C@H]23)OCO4)cc(OC)c1O [etoposide] + CN(C)S(=O)(=O)c1ccc2c(c1)/C(=C/c1cc3c([nH]1)CCCC3)C(=O)N2 [SU6656] (first compound 0.02 µM, partner dose 0.4 µM) | 155% | 48% | 102% | 180% | 71% | 137% | 202% | 3500% | 250% | 76.4% |
| O=C(Nc1cc(C(F)(F)F)cc(C(F)(F)F)c1)c1cc(Cl)ccc1O + O=C(CCCCCCC(=O)Nc1ccccc1)NO [vorinostat] (first compound 0.016 µM, partner dose 0.08 µM) | 196% | 85.4% | 63.5% | 129% | 33.3% | 42.5% | 128% | 88.3% | 205% | 114% |
| COc1cc([C@@H]2c3cc4c(cc3[C@@H](O[C@@H]3O[C@@H]5CO[C@@H](C)O[C@H]5[C@H](O)[C@H]3O)[C@H]3COC(=O)[C@H]23)OCO4)cc(OC)c1O [etoposide] + C=CCn1c(=O)c2cnc(Nc3ccc(N4CCN(C)CC4)cc3)nc2n1-c1cccc(C(C)(C)O)n1 [MK1775] (first compound 0.02 µM, partner dose 0.02 µM) | 93.8% | 256% | 141% | 246% | 44.1% | 161% | 131% | 32.4% | 118% |  |
| Cc1cc(Nc2cc(N3CCN(C)CC3)nc(Sc3ccc(NC(=O)C4CC4)cc3)n2)n[nH]1 [Tozasertib] + O=C(O)c1ccc(-c2c[nH]c3ncc(-c4ccccc4)cc23)cc1C1CCCC1 [GSK650394] (first compound 0.006 µM, partner dose 0.16 µM) | 71.2% | 45.6% | 177% | 85.8% | 125% | 336% | 103% | 111% | 248% | 128% |
| O=C(/C=C/c1cccnc1)NCCCCC1CCN(C(=O)c2ccccc2)CC1 + NC(=O)Nc1cc(-c2cccc(F)c2)sc1C(=O)N[C@H]1CCCNC1 [AZD7762] (first compound 0.01 µM, partner dose 0.02 µM) | 191% | 46.4% | 78.7% | 372% | 257% | 7050% | 81.6% | 91.4% | 299% | 588% |
| Cc1cn(-c2cc(NC(=O)c3ccc(C)c(Nc4nccc(-c5cccnc5)n4)c3)cc(C(F)(F)F)c2)cn1 [nilotinib] + O=C(CCCCCCC(=O)Nc1ccccc1)NO [vorinostat] (first compound 0.2 µM, partner dose 0.08 µM) | 121% | 265% | 98.5% | 70.5% | 197% | 68.7% | 88.6% | 93.7% | 106% | 89.9% |
| O=C(Nc1cc(C(F)(F)F)cc(C(F)(F)F)c1)c1cc(Cl)ccc1O + CN(C)S(=O)(=O)c1ccc2c(c1)/C(=C/c1cc3c([nH]1)CCCC3)C(=O)N2 [SU6656] (first compound 0.016 µM, partner dose 0.4 µM) | 194% | 97.6% | 176% | 96.4% | 66.4% | 58.7% | 165% | 783% | 239% | 106% |
| Cc1cc(Nc2cc(N3CCN(C)CC3)nc(Sc3ccc(NC(=O)C4CC4)cc3)n2)n[nH]1 [Tozasertib] + Cc1ccc(NC(=O)c2cccc(N(C)C)c2)cc1NC(=O)c1ccc(O)cc1 [ZM336372] (first compound 0.006 µM, partner dose 2 µM) | 108% | 40.2% | 217% | 214% | 203% | 161% | 99.8% | 110% | 159% | 102% |
| O=C(/C=C/c1cccnc1)NCCCCC1CCN(C(=O)c2ccccc2)CC1 + O=C(Nc1cccc(Cl)c1)Nc1ncc(CCNc2ncnc3ccsc23)s1 [SNS314] (first compound 0.01 µM, partner dose 0.0008 µM) | 78.9% | 187% | 79.6% | 125% | 41.8% | 1780% | 96.2% | 102% | 368% | 623% |
| CCCCCCCCCCCCCCCCCCOP(=O)([O-])OC1CC[N+](C)(C)CC1 [Perifosine] + OCCn1cc(-c2cnc3nnn(Cc4ccc5ncccc5c4)c3n2)cn1 [PF04217903] (first compound 0.4 µM, partner dose 1 µM) | 267% | 347% | 299% | 3600% | 109% | 124% | 97.8% | 443% | 221% | 111% |
| Cc1ccc(Nc2nccc(N(C)c3ccc4c(C)n(C)nc4c3)n2)cc1S(N)(=O)=O [Pazopanib] + NCC(=O)Nc1ccc(-n2nc(C(F)(F)F)cc2-c2ccc3c(ccc4ccccc43)c2)cc1 [OSU03012] (first compound 0.4 µM, partner dose 1 µM) | 463% | 216% | 120% | 3150% | 146% | 165% | 46.7% | 96.7% | 217% | 82.7% |

Quoted from the results shown for reference:

| Structure (SMILES) | cleaved PARP positive nuclei fraction (501Mel) | cleaved PARP positive nuclei fraction (A101D) | cleaved PARP positive nuclei fraction (A2058) | cleaved PARP positive nuclei fraction (A375) | cleaved PARP positive nuclei fraction (C32) | cleaved PARP positive nuclei fraction (CBRC008) | cleaved PARP positive nuclei fraction (CBRC013) | cleaved PARP positive nuclei fraction (CBRC014) | cleaved PARP positive nuclei fraction (CBRC016) | cleaved PARP positive nuclei fraction (CBRC017) |
| --- | --- | --- | --- | --- | --- | --- | --- | --- | --- | --- |
| COc1cc([C@@H]2c3cc4c(cc3[C@@H](O[C@@H]3O[C@@H]5CO[C@@H](C)O[C@H]5[C@H](O)[C@H]3O)[C@H]3COC(=O)[C@H]23)OCO4)cc(OC)c1O [etoposide] + CN(C)S(=O)(=O)c1ccc2c(c1)/C(=C/c1cc3c([nH]1)CCCC3)C(=O)N2 [SU6656] (first compound 0.02 µM, partner dose 0.4 µM) | 155% | 48% | 102% | 180% | 71% | 137% | 202% | 3500% | 250% | 76.4% |
| O=C(Nc1cc(C(F)(F)F)cc(C(F)(F)F)c1)c1cc(Cl)ccc1O + O=C(CCCCCCC(=O)Nc1ccccc1)NO [vorinostat] (first compound 0.016 µM, partner dose 0.08 µM) | 196% | 85.4% | 63.5% | 129% | 33.3% | 42.5% | 128% | 88.3% | 205% | 114% |
